{
  "source": "patent US11807835B2",
  "about": "“Detergent compositions containing a stabilized enzyme by phosphonates” (ECOLAB USA INC., priority 2016, dated 2023)",
  "tested_on": "lipase",
  "assay": "Lipase activity retention in detergent use solution (4000 ppm, 5 GPG water; p-nitrophenyl valerate, TRIS buffer pH 8.0)",
  "type": "biochemical",
  "conditions": "after use solution was generated for 4 hours",
  "experimental": "The enzyme […] collected up to 4 hours, after a use solution was generated from the detergent composition. During the tests, the samples at different time points were collected and immediately frozen in an acetone/dry ice bath and stored in −80° C. before the activity of the enzyme was evaluated. For the use of such an assay, t=0 min was the reference point for 100% enzyme activity.\nAssays of enzyme activity in formulations (% retention) were conducted to simulate a presoak condition in a beaker using the chemistry, temperature, and pH conditions relevant to manual warewash or presoak applications. […]\nEnzyme activity under presoak or manual warewash conditions was traced quantitatively using a standard protease assay. […] The assay monitored the direct reaction of the protease on a small, commercially available peptidyl substrate, with liberation of the product providing correlation to the active enzyme content. The product was detected using a plate reader with an appreciable dynamic range (upper absorbance limit of the instrument >3.5). Enzyme activity levels were assessed relative to a calibration curve with average values for replicate tests used to map protease stability under presoak or manual warewash use conditions. Enzyme retention at each time point was calculated as the % enzyme activity relative to the time=0 sample. […]",
  "note": "Some results were stated once for a whole list of compounds, not compound by compound.",
  "data": [
    {"substance": "Diglycolamine phosphonate [DGAP]", "values": [
      {"measurement": "lipase activity retained", "value": "at least 15%"}
    ]}
  ]
}
